Assay results as given in paper PMC12548414.
Among all 1,600 compounds or so, about 20 (1%) showed an effect of 50% or more. Some of the results follow.

Test system: T1, E. coli pLC1021 (luc-trpAt trans-translation reporter)
T1 construct: pLC1021 luc-trpAt reporter strain
Set-up: species or system Escherichia coli pLC1021; luc-trpAt non-stop luciferase reporter; luminescence rises when trans-translation is inhibited; normalized to KKL-35 and DMSO
Conditions: reporter signal, KKL-35 = 100%; rise means trans-translation inhibition; 2 h, 20 µM
Summary of the method: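 Cells carrying the non-stop luc-trpAt reporter were exposed to 20 µM compound for 2 h at room temperature, then Bright-Glo was added and luminescence read at 560 nm after 10 min. Signals were normalised per plate to DMSO and 20 µM KKL-35 wells. Hits: activity one SD above the median; ≥2 biological repeats averaged.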

Point of comparison: `Cc1nn(-c2nc(-c3ccc(Cl)cc3)cs2)c(O)c1N=Nc1ccc(O)cc1` [KKL-1107], “% activation” value 4%. Against it:
- Cc1cc(NCc2ccccn2)n2ncc(-c3ccccc3)c2n1 [KKL-0947] — lower, 0%
- COc1ccc(Cn2c(=O)c3c(n4cnnc24)-c2ccccc2CC32CCCCC2)cc1 [KKL-0716] — higher, 13%
- Cc1cc(C(=O)Oc2ccc(Cc3ccccc3)cc2)ccc1[N+](=O)[O-] [KKL-0290] — lower, 0%
- CC(C)(C)c1ccc(C(=O)NC(=S)Nc2ccc(C(=O)O)cc2)cc1 [KKL-1314] — lower, 0%
- Cc1nn(C)c(C)c1-c1cc(C(=O)NCCCc2ccc(F)cc2)[nH]n1 [KKL-0705] — lower, 2%
- CCOC(=O)C(Oc1ccc2oc(C)c(C(=O)OC)c2c1)c1ccccc1 (centres unmarked) [KKL-0300] — lower, 0%
- O=C(/C=C/c1ccc(Cl)cc1)c1cccnc1 [KKL-0393] — lower, 0%
- C[C@@H]1C(=O)O[C@H]2[C@H]1CC[C@@]1(C)Cc3sc(NC(=O)Nc4ccc(F)cc4F)nc3[C@@H](C)[C@H]21 [KKL-0550] — lower, 0%
- COc1ccc(C(=O)Oc2ccc(C(=O)OCc3ccccc3)cc2)cc1OC [KKL-1541] — lower, 0%
- CCOC(=O)c1cnc(-n2nc(C)cc2C)nc1NCCc1ccccc1 [KKL-0998] — higher, 10%
- Cc1nn(-c2nc3ccccc3[nH]2)c(N)c1-c1ccccc1 [KKL-1566] — lower, 0%
- CCOC(=O)Cn1nnc(-c2ccc(OCc3ccccc3F)cc2)n1 [KKL-1264] — lower, 0%
- CN(C(=O)c1c[nH]nc1-c1ccc(CNC(=O)c2cccc(Cl)c2)cc1)c1ccccc1 [KKL-1349] — the same, 4%
- CCOC(=O)C1(CCOC)CCN(Cc2ccc(N(C)c3ccccc3)cc2)CC1 [KKL-0619] — lower, 2%
- COc1ccc(CCNC(=O)c2c(C)nc3ccccn23)cc1 [KKL-1746] — higher, 14%
- CC(NC(=O)NNC(=O)c1ccncc1)(C(F)(F)F)C(F)(F)F [KKL-0591] — lower, 0%
- CCC(C)Oc1ccc(C(=O)NC(=S)Nc2ccc3c(c2)COC3=O)cc1 (centres unmarked) [KKL-1429] — lower, 0%
- COc1ccc(-c2n(C)c3ccccc3[n+]2CC(=O)OC2CC(C)CCC2C(C)C)cc1 (centres unmarked) [KKL-1662] — lower, 0%
- COC(=O)c1cc(NC(=O)Nc2cccc(Cl)c2)cc(C(=O)OC)c1 [KKL-1351] — higher, 6%
- CC1=CC(C)(C)Nc2ccc(OC(=O)c3cccs3)cc21 [KKL-0410] — lower, 0%
- COc1ccc(-c2cc(C(=O)N3C[C@H](C)N(Cc4ccco4)C[C@@H]3C)no2)cc1 [KKL-0930] — lower, 0%
- O=C(Nc1nc(-c2ccc3c(c2)CCO3)cs1)c1cccc(Cn2cncn2)c1 [KKL-1224] — lower, 0%
- COC(=O)C(CC(C)C)NC(=O)/C=C/c1ccccc1Cl (centres unmarked) [KKL-1105] — lower, 0%
- Cc1ccc(C(=O)Nc2nc(-c3ccccn3)cs2)s1 [KKL-1686] — higher, 12%
- Cc1ccc(NC2CCCN(C3CSCCSC3)C2)cc1C (centres unmarked) [KKL-0318] — higher, 6%
- Cc1ccc(-n2cc(CN(C)Cc3cc(C)[nH]n3)c(-c3ccc(F)cc3)n2)cc1 [KKL-0319] — lower, 0%
- CCOC(=O)/C(C#N)=C/c1ccc(-c2ccc(F)cc2)o1 [KKL-0788] — lower, 0%
- CN(C)CCCNc1cc(C(C)(C)C)nc2c(-c3ccccc3)cnn12 [KKL-0371] — lower, 0%
- O=C(Nc1ccccc1-c1ccccc1)C(Cl)(Cl)Cl [KKL-0736] — lower, 0%
- CC1(C)C=Cc2c(nc3ccccc3c2NCc2ccccc2)C1 [KKL-0785] — lower, 0%
- CC(Nc1nc(N2CCN(C(=O)c3ccc(Cl)cc3)CC2)nc2ccccc12)c1ccccc1 (centres unmarked) [KKL-1529] — the same, 4%
- O=C(CSc1n[nH]c(-c2ccc(Cl)cc2)n1)Nc1ccc(F)c(Cl)c1 [KKL-1524] — lower, 0%
- O=C1c2cccc3c(N4CCOCC4)c([N+](=O)[O-])cc(c23)C(=O)N1c1cccc2ccccc12 [KKL-1087] — lower, 0%
- Cc1cc(C)cc(COc2ccc3c(C)c(CCC(=O)O)c(=O)oc3c2C)c1 [KKL-1546] — lower, 0%
- CCC(C)NCCOc1ccc(C(C)(C)c2ccccc2)cc1 (centres unmarked) [KKL-1489] — lower, 1%
- CCCOC(=O)COc1ccc2c(=O)c(-c3ccccc3OC)coc2c1 [KKL-1880] — the same, 4%
- Cc1ccc(S(=O)(=O)Nc2ccc(NC(=O)Nc3cccc(C(F)(F)F)c3)cc2)cc1 [KKL-1329] — lower, 0%
- O=C(/C=C/c1cc([N+](=O)[O-])ccc1O)c1ccc(Cl)cc1 [KKL-0296] — lower, 0%
- O=C(/C=C/c1cn(CC(O)CN2CCCCC2)c2ccccc12)c1ccccc1 (centres unmarked) [KKL-1210] — lower, 0%
- COC(=O)[C@@H]1Cc2c([nH]c3ccccc23)[C@H]2C[C@@H](N3CCOCC3)C[C@@H](c3ccc(Cl)c(F)c3)N21 [KKL-0305] — lower, 0%
- CCC(CC)C(=O)N1CCCC(C(=O)Nc2cccc(-c3ccc(F)cc3)c2)C1 (centres unmarked) [KKL-0490] — lower, 3%
- Cc1nn(-c2ccc([N+](=O)[O-])cc2)c(C)c1N1C(=O)c2cccc3cc(Br)cc(c23)C1=O [KKL-0425] — lower, 0%
- C#CCOc1cccc(CN2CCc3[nH]c4ccc(OCC)cc4c3C2)c1 [KKL-0460] — higher, 26%
- CCc1ccc(C=c2sc(=CC(=O)C(C)(C)C)[nH]c2=O)cc1 [KKL-0793] — lower, 0%
- Cc1ccc2[nH]c(/C(C#N)=C\c3ccc([N+](=O)[O-])o3)nc2c1 [KKL-1100] — lower, 0%
- O=C(NC1CCCCC1)N1CCN(Cc2ccc3c(c2)OCO3)CC1 [KKL-1053] — lower, 3%
- O=C(CC12CC3CC(CC(C3)C1)C2)Nc1ccc(F)c(Cl)c1 [KKL-0744] — lower, 0%
- COc1ccccc1CCCNC(=O)c1cc(-c2c(C)nn(C)c2C)[nH]n1 [KKL-0468] — lower, 0%
- Cc1ccc(-c2csc3nc(SCC(N)=O)n(-c4ccccc4)c(=O)c23)cc1C [KKL-1411] — lower, 0%
- CCOC(=O)/C=C/C(=O)Nc1nc(-c2ccccc2)cs1 [KKL-1378] — lower, 0%
- COc1ccc(CN2CCN(C(=O)CCc3csc(C)n3)CC2)cc1 [KKL-1778] — lower, 0%
- N#CCc1ccc(NC(=O)/C=C/c2ccc([N+](=O)[O-])o2)cc1 [KKL-1204] — lower, 0%
- Cc1nc2cc(OCc3cc(C(=O)N4CCCC(c5ccccc5)C4)no3)ccc2s1 (centres unmarked) [KKL-1111] — lower, 2%
- COC(=O)COc1ccc(C2CCCCC2)cc1 [KKL-1303] — lower, 0%
- CC(=O)N1CCN(c2ccc(NC(=S)NC(=O)c3cc4ccccc4o3)cc2)CC1 [KKL-1376] — lower, 0%
- COc1ccc(OC(C)C(=O)Nc2ccc(Cl)cc2C)cc1 (centres unmarked) [KKL-1555] — the same, 4%
- COC(=O)COc1ccc2c(=O)c(-c3ccccc3OC)coc2c1 [KKL-1134] — lower, 3%
- COc1ccc(-c2cc3ncccc3c(NCCNC(=O)c3scnc3C)n2)cc1 [KKL-1255] — lower, 0%
- CCOC(=O)C1(Cc2ccc(Cl)cc2)CCN(C(=O)Nc2ccc(SC)cc2)CC1 [KKL-0519] — lower, 2%
- Cc1nn2c(N3CCN(C)CC3)cc(C(C)(C)C)nc2c1-c1ccccc1 [KKL-0881] — lower, 0%
- Cc1cnc(N2CCN[C@@H](Cc3ccccc3)C2)nc1Oc1ccc(-n2ccnc2)cc1 [KKL-1724] — higher, 6%
- Fc1ccc(Nc2nc(-c3ccccn3)cs2)cc1 [KKL-0715] — higher, 18%
- COc1ccc(C2(C(=O)Nc3ccc(Br)cc3)CCCC2)cc1 [KKL-1576] — lower, 0%
- Cc1ccccc1CN1CC[C@@H]2[C@H](C1)[C@@H](c1ccc(F)cc1)CN2C(=O)C(C)C [KKL-1218] — lower, 2%
- COc1ccc(-c2cnnc(NCCc3cccnc3)n2)cc1 [KKL-0647] — lower, 2%
- CN(CCn1ccnc1)Cc1cn(Cc2ccccc2)nc1-c1cc2ccccc2o1 [KKL-0649] — lower, 0%
- CC(NC(=O)Nc1cccc(C(F)(F)F)c1)C1CC2CCC1C2 (centres unmarked) [KKL-1545] — lower, 0%
- Cc1ccc(NC(=O)C2OCOc3ccccc32)cc1N1CCCCC1 (centres unmarked) [KKL-0697] — lower, 0%
- O=C(c1cc(COc2ccc(F)c(F)c2)on1)N1CCCCO1 [KKL-0617] — lower, 0%
- CCOc1ccc(OCc2ccc(C(=O)NNC(=O)c3ccc([N+](=O)[O-])o3)cc2)cc1 [KKL-1790] — lower, 0%
- CCOC(=O)c1ccc(NC(=O)COc2ccccc2CNCCc2ccccc2)cc1 [KKL-0959] — lower, 0%
- CCc1c(C)sc(N=C(S)NC2CCN(Cc3ccccc3)CC2)c1C(=O)OC [KKL-1327] — lower, 0%
- COc1cccc(CNC(=O)CCC2CCCN(c3ccnc(SC)n3)C2)c1 (centres unmarked) [KKL-0650] — higher, 9%
- COC(=O)CSc1nc2c(c(-c3ccc(C)o3)c1C#N)CCCC2 [KKL-0895] — lower, 0%
- CCOC(=O)c1ccc2nc(C)cc(Nc3ccc(N4CCCCC4)cc3)c2c1 [KKL-0730] — lower, 0%
- N#Cc1nc(-c2ccccc2)oc1S(=O)(=O)c1ccc(Cl)cc1 [KKL-1705] — lower, 0%
- Clc1ccc(CCNc2cc(-c3ccccc3)nc3ncnn23)cc1 [KKL-1751] — lower, 0%
- COc1cccc(-n2nnnc2S(C)(=O)=O)c1 [KKL-0610] — lower, 0%
- Cc1ccc(CN(CCCn2ccnc2)Cc2cccn2-c2cccc(F)c2)o1 [KKL-0439] — higher, 9%
- CC(=O)Oc1cccc2ccc(/C=C/c3ccc(F)cc3)nc12 [KKL-1391] — higher, 9%
- O=[N+]([O-])c1cccc(NC(S)=Nc2ccc(Cl)c(C(F)(F)F)c2)c1 [KKL-1319] — lower, 0%
- COc1ccccc1N1C(=O)c2cccc3cc([N+](=O)[O-])cc(c23)C1=O [KKL-1508] — lower, 0%
